Measurements reported in PubChem BioAssay AID1259308 (NCATS, 2017).
Aim: 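Genes whose loss raises luciferase production in HEK293 cells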 (primary screen). Cell system: human HEK293 embryonic kidney cells stably expressing firefly luciferase (HEK-CMV-Luc2-Hygro). Reagent: single siRNA against human genes, 0.8 pmol siRNA per well. Timing: 72 h. Detection: 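Luciferase light (ONE-Glo) measured on one replicate plate set and viability (CellTiter-Glo) on the other, scaled to a negative control siRNA, with robust z-scores and luciferase per cell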. Direction: total luciferase, z-score: higher = more reporter protein produced. Rule for the call: 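An siRNA counts as active if its total luciferase robust z-score exceeds 3; genes with two or more such siRNAs out of three were retested with fresh siRNAs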. Meaning of the calls: active = raised luciferase; inactive = no rise.
The deposit covers about 59,000 reagents; below is a random part of them. Of all reagents, about 1,510 (2.6%) are marked active. 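Calls use total luciferase alone and ignore viability, so some active siRNAs may act by altering cell number.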 Unmarked entries are inactive. Reagents against one gene are numbered here. Not all columns of the deposit are shown. No sequences are given here.

The first 3 records, to show the layout:
target gene	reagent	total luciferase, z-score
TET1 (tet methylcytosine dioxygenase 1)	1	-0.397
TET1 (tet methylcytosine dioxygenase 1)	2	0.312
TET1 (tet methylcytosine dioxygenase 1)	3	4.1 (active)

The listing, from the start:
target gene	reagent	total luciferase, z-score
TET1 (tet methylcytosine dioxygenase 1)	1	-0.397
TET1 (tet methylcytosine dioxygenase 1)	2	0.312
TET1 (tet methylcytosine dioxygenase 1)	3	4.1 (active)
HK3 (hexokinase 3)	1	-0.122
HK3 (hexokinase 3)	2	2.72
HK3 (hexokinase 3)	3	0.865
ATG5 (autophagy related 5)	1	0.915
ATG5 (autophagy related 5)	2	0.345
ATG5 (autophagy related 5)	3	-0.256
VASP (vasodilator stimulated phosphoprotein)	1	0.583
VASP (vasodilator stimulated phosphoprotein)	2	-1.95
VASP (vasodilator stimulated phosphoprotein)	3	1.14
HOXB7 (homeobox B7)	1	-0.44
HOXB7 (homeobox B7)	2	-1.54
HOXB7 (homeobox B7)	3	-0.281
LCN2 (lipocalin 2)	1	0.396
LCN2 (lipocalin 2)	2	-0.345
LCN2 (lipocalin 2)	3	-0.529
ZNF547 (zinc finger protein 547)	1	2.02
ZNF547 (zinc finger protein 547)	2	0.689
ZNF547 (zinc finger protein 547)	3	1.01
CEP126 (centrosomal protein 126)	1	-1.22
CEP126 (centrosomal protein 126)	2	0.144
CEP126 (centrosomal protein 126)	3	0.155
RTN4R (reticulon 4 receptor)	1	0.809
RTN4R (reticulon 4 receptor)	2	1.35
RTN4R (reticulon 4 receptor)	3	0.445
PROM1 (prominin 1)	1	2.19
PROM1 (prominin 1)	2	2.68
PROM1 (prominin 1)	3	0.574
IL33 (interleukin 33)	1	-0.909
IL33 (interleukin 33)	2	-0.824
IL33 (interleukin 33)	3	-0.181
PKD2L1	1	0.222
PKD2L1	2	3.56 (active)
PKD2L1	3	-0.691
SRPK3 (SRSF protein kinase 3)	1	0.0825
SRPK3 (SRSF protein kinase 3)	2	-1.81
SRPK3 (SRSF protein kinase 3)	3	-0.122
SMTNL1 (smoothelin like 1)	1	0.843
SMTNL1 (smoothelin like 1)	2	-0.71
SMTNL1 (smoothelin like 1)	3	-1.29
AOC3 (amine oxidase copper containing 3)	1	-0.685
AOC3 (amine oxidase copper containing 3)	2	-1.27
AOC3 (amine oxidase copper containing 3)	3	0.37
IQSEC1 (IQ motif and Sec7 domain ArfGEF 1)	1	0.411
IQSEC1 (IQ motif and Sec7 domain ArfGEF 1)	2	0.146
IQSEC1 (IQ motif and Sec7 domain ArfGEF 1)	3	-1.38
SAMD1 (sterile alpha motif domain containing 1)	1	2.42
SAMD1 (sterile alpha motif domain containing 1)	2	0.232
SAMD1 (sterile alpha motif domain containing 1)	3	2.84
KCNN2 (potassium calcium-activated channel subfamily N member 2)	1	2.96
KCNN2 (potassium calcium-activated channel subfamily N member 2)	2	-0.057
KCNN2 (potassium calcium-activated channel subfamily N member 2)	3	0.511
SLC22A1	1	0.771
SLC22A1	2	1.24
SLC22A1	3	0.784
